The values that follow come from PMC10684580, “Unexpected dynamics in femtomolar complexes of binding proteins with peptides” (Nature Communications, 2023).

“Also recorded” adds a separate entry of the source.

Data set [1] deals with N^YM7C. Nature of the data set: [15N,1H]-HSQC peptide titration, N^YM7C/NM7C. In kind it is binding.
Data set [2] relates to N^AM7C. Nature of the data set: [15N,1H]-HSQC peptide titration, N^AM7C. In kind it is binding. Particulars: 310 K.

As for (Lys-Arg)4 [(KR)4], the “binding mode / preferred binding site” value in data set [1] (HSQC titration and CSPs, (KR)4, N^YM7C (segmentally labeled for site preference)) was “two-step process with an initial tight binding of the first peptide followed by weaker binding of a second peptide; also recorded: slight preference for the C-terminal part of the protein”. Further, in data set [1] (HSQC titration, 310 K, 250 μM dArmRP), the “exchange regime on the NMR timescale” value is reported as “slow exchange is observed only up to 1 equiv. of (KR)4 for the Trp indole signals, after which signals follow further changes in the fast-exchange regime”. In addition, in data set [2], the “linewidth of bound-state signals” value was “linewidths of the bound-state signals decrease when going from (KR)4 to (KR)5 to (KR)6; also recorded: much broader for the N^AM7C:(KR)4 complex than for the N^YM7C:(KR)4 complex”. For the same substance, the “exchange regime of bound-state signals” value in data set [2] (250 μM dArmRP) was “intermediate exchange”.
